Taken from: PubChem BioAssay AID1159578 (Peter MacCallum Cancer Centre, 2015)

Purpose: 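Knock-downs that alter how fast lymphatic endothelial cells migrate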 (primary screen)
Cells: human lymphatic endothelial cells
Reagents: siRNA pool against human genes, 40 nM
Time to read-out: 48 h after transfection
Measurement: 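High-content imaging of dye-stained cells in a scratch assay measures filled wound area and nuclei per well; duplicate means given as ratio to mock and robust z-score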
Reading the numbers: migration robust z-score: higher = faster migration into the scratch; nuclei per well: higher = more cells in the well
Rule for the call: 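Migration changed when robust z exceeds 2 or falls below -2 and mean nuclei number is at least 3300; otherwise not called changed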
Calls: active = migration changed; inactive = no migration change, or too few cells
Here is a random part of about 18,000 reagents tested. About 1,030 of them (5.7%) count as active. 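Inactive calls also include pools with fewer than 3300 nuclei, whose migration was not assessed.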 Raw values vary from plate to plate and are shown uncorrected. Not all columns of the deposit are shown.

gene knocked down	migration robust z-score	migration class with cell-count check	nuclei per well, duplicate mean	call
PRSS23 (serine protease 23)	1.68	migration z between -2 and 2; enough cells	5014	inactive
SYNM (synemin)	0.02	migration z between -2 and 2; enough cells	5439	inactive
ZDHHC2 (zDHHC palmitoyltransferase 2)	-0.35	migration z between -2 and 2; enough cells	5830	inactive
VAV1 (vav guanine nucleotide exchange factor 1)	-1.45	migration z between -2 and 2; enough cells	6068	inactive
PSMD4 (proteasome 26S subunit ubiquitin receptor, non-ATPase 4)	0.11	migration z between -2 and 2; enough cells	5762	inactive
CEPT1 (choline/ethanolamine phosphotransferase 1)	-2.67	migration z below -2; enough cells	3361	active
IRX1 (iroquois homeobox 1)	-0.15	migration z between -2 and 2; enough cells	5763	inactive
RBM5 (RNA binding motif protein 5)	-0.84	migration z between -2 and 2; enough cells	4830	inactive
FLCN (folliculin)	-3.46	migration z below -2; enough cells	5315	active
GPX1 (glutathione peroxidase 1)	-0.9	migration z between -2 and 2; enough cells	4741	inactive
AHSP (alpha hemoglobin stabilizing protein)	-0.35	migration z between -2 and 2; enough cells	5012	inactive
TECTB (tectorin beta)	-2.05	migration z below -2; enough cells	4429	active
BCAS4 (breast carcinoma amplified sequence 4)	-0.24	migration z between -2 and 2; enough cells	5682	inactive
FOXQ1 (forkhead box Q1)	-1.45	migration z between -2 and 2; enough cells	5618	inactive
CENPQ (centromere protein Q)	-0.34	migration z between -2 and 2; enough cells	6466	inactive
IGFL2 (IGF like family member 2)	0.32	migration z between -2 and 2; enough cells	5606	inactive
PRRC2C (proline rich coiled-coil 2C)	-0.88	migration z between -2 and 2; enough cells	6739	inactive
FAM133A (family with sequence similarity 133 member A)	0.12	migration z between -2 and 2; enough cells	5920	inactive
PDE5A (phosphodiesterase 5A)	-0.89	migration z between -2 and 2; enough cells	5831	inactive
HP (haptoglobin)	-0.93	migration z between -2 and 2; enough cells	4738	inactive
PCOTH (prostate and testis expressed opposite C1QTNF9B and MIPEP)	0.62	migration z between -2 and 2; enough cells	5610	inactive
C22orf39 (chromosome 22 open reading frame 39)	-1.88	migration z between -2 and 2; enough cells	4238	inactive
CAPS (calcyphosine)	-1.34	migration z between -2 and 2; enough cells	5438	inactive
GNAS (GNAS complex locus)	-2.77	migration z below -2; enough cells	4392	active
ZW10 (zw10 kinetochore protein)	-1.31	migration z between -2 and 2; enough cells	3834	inactive
ACOT2 (acyl-CoA thioesterase 2)	-0.26	migration z between -2 and 2; enough cells	4420	inactive
UTP6 (UTP6 small subunit processome component)	-1.91	migration z between -2 and 2; enough cells	3942	inactive
PCBP1 (poly(rC) binding protein 1)	-0.36	migration z between -2 and 2; enough cells	4866	inactive
SLC9D1	-1.39	migration z between -2 and 2; enough cells	6383	inactive
NCKAP5 (NCK associated protein 5)	1.14	migration z between -2 and 2; enough cells	6812	inactive
TGFBI (transforming growth factor beta induced)	0.44	migration z between -2 and 2; enough cells	5533	inactive
IFNA4 (interferon alpha 4)	0.94	migration z between -2 and 2; enough cells	6050	inactive
NOXO1 (NADPH oxidase organizer 1)	0.84	migration z between -2 and 2; enough cells	6224	inactive
PLP1 (proteolipid protein 1)	-1.88	migration z between -2 and 2; enough cells	4976	inactive
WDR38 (WD repeat domain 38)	2.02	migration z above 2; enough cells	6419	active
LRCH2	-0.21	migration z between -2 and 2; enough cells	5526	inactive
CPE (carboxypeptidase E)	0.86	migration z between -2 and 2; enough cells	6980	inactive
TET1 (tet methylcytosine dioxygenase 1)	-1.84	migration z between -2 and 2; enough cells	4016	inactive
DCBLD1 (discoidin, CUB and LCCL domain containing 1)	1.55	migration z between -2 and 2; enough cells	5437	inactive
DBF4 (DBF4-CDC7 kinase regulatory subunit)	-0.78	migration z between -2 and 2; enough cells	5038	inactive
CLMN (calmin)	0.62	migration z between -2 and 2; enough cells	6064	inactive
BAG5 (BAG cochaperone 5)	0.75	migration z between -2 and 2; enough cells	6506	inactive
PROS1 (protein S)	-0.32	migration z between -2 and 2; enough cells	4321	inactive
TMEM59 (transmembrane protein 59)	-2.12	migration z below -2; enough cells	6353	active
ZXDA (zinc finger X-linked duplicated A)	-1.14	migration z between -2 and 2; enough cells	5109	inactive
MRGPRD (MAS related GPR family member D)	-0.57	migration z between -2 and 2; enough cells	7214	inactive
NID2 (nidogen 2)	1.58	migration z between -2 and 2; enough cells	6462	inactive
ADARB1 (adenosine deaminase RNA specific B1)	1.2	migration z between -2 and 2; enough cells	5244	inactive
EIF5 (eukaryotic translation initiation factor 5)	-0.18	migration z between -2 and 2; enough cells	5191	inactive
DHX38 (DEAH-box helicase 38)	0.54	migration z between -2 and 2; enough cells	7432	inactive
ELMO2 (engulfment and cell motility 2)	0.16	migration z between -2 and 2; enough cells	5200	inactive
CEP68 (centrosomal protein 68)	0.96	migration z between -2 and 2; enough cells	5029	inactive
GALR2 (galanin receptor 2)	-0.94	migration z between -2 and 2; enough cells	6920	inactive
SIPA1L3 (signal induced proliferation associated 1 like 3)	-0.79	migration z between -2 and 2; enough cells	5040	inactive
LTBP3 (latent transforming growth factor beta binding protein 3)	-1.74	migration z between -2 and 2; enough cells	4652	inactive
SGCG (sarcoglycan gamma)	2.02	migration z above 2; enough cells	5991	active
PLCXD2	-0.39	migration z between -2 and 2; enough cells	6764	inactive

Entries listed so far whose gene name starts with I or i:
gene knocked down	migration robust z-score	migration class with cell-count check	nuclei per well, duplicate mean	call
IRX1 (iroquois homeobox 1)	-0.15	migration z between -2 and 2; enough cells	5763	inactive
IGFL2 (IGF like family member 2)	0.32	migration z between -2 and 2; enough cells	5606	inactive
IFNA4 (interferon alpha 4)	0.94	migration z between -2 and 2; enough cells	6050	inactive
